Results are given in words; binding and its absence hold for the method and conditions named. Binding seen in cells or lysates may run through a third protein. Some binding calls cover weakened binding; strength is not graded here.
Columns and labels:
[1] = target: Parkin (rat (endogenous in NP cells)) (UniProt Q9JK66); assay: co-IP; endogenous proteins; whole cell lysate of rat NP cells treated with 0 or 20 ng/ml IL-1β for 48h; IP with control IgG, anti-Sesn2, anti-Parkin or anti-Sqstm1 antibody, protein A agarose, 4°C; immunoblot
[2] = target: Sqstm1 (rat (endogenous in NP cells)) (UniProt O08623); assay: as above

Amino acid sequences for entries named in this document (tags omitted).
UniProt Q9JK66: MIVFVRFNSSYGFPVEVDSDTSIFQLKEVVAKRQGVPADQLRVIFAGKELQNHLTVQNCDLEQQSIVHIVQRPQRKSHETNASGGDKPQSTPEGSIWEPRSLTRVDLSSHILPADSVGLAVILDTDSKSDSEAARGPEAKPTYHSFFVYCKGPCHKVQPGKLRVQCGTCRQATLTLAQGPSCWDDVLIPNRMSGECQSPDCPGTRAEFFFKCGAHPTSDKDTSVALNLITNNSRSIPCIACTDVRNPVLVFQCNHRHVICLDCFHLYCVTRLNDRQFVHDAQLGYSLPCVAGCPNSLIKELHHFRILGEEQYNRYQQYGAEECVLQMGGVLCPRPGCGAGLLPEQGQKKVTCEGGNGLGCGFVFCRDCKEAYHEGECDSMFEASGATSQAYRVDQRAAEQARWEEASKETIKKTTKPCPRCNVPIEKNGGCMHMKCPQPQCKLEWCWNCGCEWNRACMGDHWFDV

binding [1]: binds | binding [2]: binds
B1: Sestrin 2 (Sesn2) (protein, UniProt A0A8I5Y865 1-480)
chain: MIVADSECHGEIKGYLPFTRGGVAGPGTREEHREGQARRGPRGPSAFIPVEEILREGAESLEQHLGLEALMSSGRVDNLAVVMGLHPDYLSSFWRLHYLLLHTDGPLASSWRHYIAIMAAARHQCSYLVGSHMTEFLQTGGDPEWLLGLHRAPEKLRKLSEINKLLAHRPWLITKEHIQALLKTGEHSWSLAELIQALVLLTHCHCLASFVFGCGILPEGDAEGSPASQAPSPPSEQGGPPSRDPLNNSGGFEAARDIEALMERMRQLQESLLRDEGASQEEMENRFELEKTESLLVTPSADILEPSPHPDILCFVEDPTFGYEDFTRRGTQAPPTFRAQDYTWEDHGYSLIQRLYPEGGQLLDEKFQVAYSLTYNTIAMHSGVDTSMLRRAVWNYIHCVFGIRYDDYDYGEVNQLLERNLKIYIKTVACYPEKTTRRMYNLFWRHFRHSEKVHVNLLLLEARMQAALLYALRAITRYMT

Reference: paper PMC9830501
